Results are given in words; binding and its absence hold for the method and conditions named. Binding seen in cells or lysates may run through a third protein. Binding can be weak; no strength is given.
What was measured:
[1] = molecular target: dystrophin 71f (rat (endogenous in cultured hippocampal neurons)); test: co-IP; nucleoskeleton fraction (1 mg) of cultured rat hippocampal neurons, precleared, incubated overnight at 4°C with Dys-2 (Dp71d) or 5F3 (Dp71f) Ab bound to protein G-agarose; washed three times with RIPA buffer; western blot; anti-CD4 Ab as unrelated control
[2] = molecular target: dystrophin 71d (rat (endogenous in cultured hippocampal neurons)); test: as above

B1: β-dystrobrevin (protein, UniProt P84060 1-654)
chain: MIEEGGNKRKTMAEKRQLFIEMRAQNFDVIRLSTYRTACKLRFVQKRCNLHLVDIWNMIEAFRDNGLNTLDHATEISVSRLETVISSIYYQLNKRLPSTHQINVEQSISLLLNFMIAAYDSEGRGKLTVFSVKAMLATMCGGKMLDKLRYIFSQMSDSNGLMMFGKLDQFLKEALKLPTAVFEGPSFGYTEHAVRTCFPQQKKIMLNMFLDTMMADPPPQCLVWLPLMHRLAHVENVFHPVECSYCHCESMMGFRYRCQQCHNYQLCQNCFWRGHAGGPHSNQHQMKELSSWKSPAKKLSHAISKSLGCVPSREPPHPVFPEQPEKPLDLAHIVPPRPLTNMNDTMVSHMSSGVPTPTKRLQYGQDMPNLLADEHALIASYVARLQHCTRVLDSPSRLDEEHRLIARYAARLAAEAGNMTRPPTDASFNFDANKQQRQLIAELENKNREILQEIQRLRLEHEQASQPTPEKAQQNPTLLAELRLLRQRKDELEQRMSALQESRRELMVQLEGLMKLLKAQATGSPHTSPTHGGGRSMPMPVRSTSAGSTPTHGPQDSLSGVGGDVQEAFAQGTRRNLRNDLLVAADSITNTMSSLVKELHSGETQRFPLVSSSPSCPLPCPTIPTHSPSFHATFPSRNTRDLHPVPPSHMVSLY
- binding [1]: binds
- binding [2]: binds

— article PMC4574971
